# Test results published in publication PMC12670160, “A drug-repurposing screen of FDA- and EMA-approved drugs identifies two NF-κB inhibitors active against eumycetoma” (Journal of Antimicrobial Chemotherapy, 2025).
# Structures can show the parent of a compound that is named as a salt. The whole screen tested about 5,300 compounds, of which about 130 (2.5%) showed an effect of 50% or more. The list shows a part of the results.
# Tested on: M. mycetomatis strain mm55
# Conditions: primary screen, metabolic activity vs growth control; 96 h, 2 µM; inhibitor
row,Compound,% viability [%]
1,"CCc1cn([C@H]2C[C@H](O)[C@@H](CO)O2)c(=O)[nH]c1=O [ONC0002853, edoxudine]",105.9
2,"OC[C@H]1O[C@H](O)[C@H](O)[C@@H](O)[C@@H]1O [ONC0005330, alphadglucopyranose]",104.4
3,"CCCCCCCCNC(=O)/C(C#N)=C/c1cn(CCCN(C)C)c2ccccc12 [ONC0001410, dynole342]",58.4
4,"Ac-PHSCN-NH2 [ONC0000745, atn161 trifluoroacetate salt]",72.86
5,"CC1(C)C(=O)N=C2C1=C(O)C(=O)c1ccccc12 [ONC0000022, bvt948]",75.29
6,"CCC(C)N(C)C(=O)c1cc2ccccc2c(-c2ccccc2Cl)n1 (stereo not shown) [ONC0003008, pk11195]",87.3
7,"COc1cc2c(cc1C(F)(F)F)N(C(=O)Nc1cc(F)cc(-c3cccnc3)c1)CC2 [ONC0001434, sb228357]",91.99
8,"Cc1cccc([C@H](C)c2cnc[nH]2)c1C [ONC0002578, dexmedetomidine]",93.94
9,"CC1(C)CCC(C)(C)c2cc(Cn3cccn3)c(/C=C/c3ccc(C(=O)O)cc3)cc21 [ONC0001101, palovarotene]",51.36
10,"CCNC(=O)NS(=O)(=O)c1sc(CC(C)C)cc1-c1ccc(Cn2c(-c3ccccc3)nc(OC)c2C=O)cc1 [ONC0000768, ave 0991]",77.34
11,"CC(=O)CC(=O)O [ONC0002746, lithium acetoacetate]",87.82
12,"CC(C)(Cc1c[nH]c2ccc(Cl)cc12)NCCOc1ccccc1OCC1CC1 [ONC0001874, rs17053]",102.3
13,"CN1C(=O)/C(=C2/C(=O)Nc3ccccc32)c2ccccc21 [ONC0000755, meisoindigo]",81.88
14,"Nc1nc2ccc(Cl)cc2c2nc(-c3ccco3)nn12 [ONC0002662, cgs15943]",75.04
15,"Cc1ccc(C[N+](C)(C)C)o1 [ONC0001794, 5methylfurmethiodide]",113.2
16,"CCOC(=O)Nc1cc(-c2ccc(C)c(NS(C)(=O)=O)c2)nn2c(C)nnc12 [ONC0005187, bromosporine]",72.52
17,"CS(=O)(=O)Nc1ccc2oc3c(OC(F)F)ccc(C(=O)Nc4c(Cl)cncc4Cl)c3c2c1 [ONC0000891, oglemilast]",62.29
18,"Cc1cc2c(F)c(Oc3ncnn4cc(OC[C@@H](C)OC(=O)[C@H](C)N)c(C)c34)ccc2[nH]1 [ONC0004738, brivanib alaninate bms582664]",99.27
19,"CC(NCCC(c1ccccc1)c1ccccc1)c1ccccc1 (stereo not shown) [ONC0001878, fendiline]",72.6
20,"CC(=O)OC1[C@@H](N2CC[N+](C)(C)CC2)C[C@H]2[C@@H]3CC[C@H]4C[C@H](OC(C)=O)[C@@H](N5CC[N+](C)(C)CC5)C[C@]4(C)[C@H]3CC[C@]12C (stereo partly shown) [ONC0001992, pipecuronium]",103.5
21,"CCc1cccc(CC)c1NC1=NCCN1 [ONC0003558, st91]",106.8
22,"C[C@@H]1CCN(C(=O)CC#N)C[C@@H]1N(C)c1ncnc2[nH]ccc12 [ONC0005042, tofacitinib cp690550 tasocitinib]",82.74

# Reformatted: results already given
row | Compound | % viability [%]
3 | CCCCCCCCNC(=O)/C(C#N)=C/c1cn(CCCN(C)C)c2ccccc12 [ONC0001410, dynole342] | 58.4
4 | Ac-PHSCN-NH2 [ONC0000745, atn161 trifluoroacetate salt] | 72.86
5 | CC1(C)C(=O)N=C2C1=C(O)C(=O)c1ccccc12 [ONC0000022, bvt948] | 75.29

# Further entries follow.

row,Compound,% viability [%]
1,"CC(=O)C(=Cc1cc(O)c(O)c([N+](=O)[O-])c1)C(C)=O [ONC0003792, nitecapone]",63.44
2,"C#CC[C@H](c1nc2cc(Cl)ccc2c(=O)n1Nc1ccccc1)N(CCCN)C(=O)c1cccc(Cl)c1F [ONC0004318, arq 621]",92.5
3,"Cc1c(N(C)CS(=O)(=O)O)c(=O)n(-c2ccccc2)n1C [ONC0002840, dipyrone]",91.28
4,"O=C(/C=C/c1ccc(O)c(O)c1)OCCc1ccccc1 [ONC0003026, caffeicacidphenethylester]",130
5,"C=CC(=O)Nc1cccc(Oc2nc(Nc3ccc(N4CCN(C)CC4)cc3OC)ncc2Cl)c1 [ONC0004856, wz4002]",102
6,"NCC(O)CC(=O)O (stereo not drawn) [ONC0002878, threonine dl]",95.1
7,"CC(=O)OCC(CCn1cnc2cnc(N)nc21)COC(C)=O [ONC0003937, famciclovir]",73.29
8,"NNc1nncc2ccccc12 [ONC0000426, hydralazine hydrochloride]",61.24
9,"CCCCC(F)(F)C(=O)CC[C@H]1[C@H](O)CC(=O)[C@@H]1CCCCCCC(=O)O [ONC0004918, lubiprostone]",115.4
10,O=c1c2c[nH]c3ccccc3c-2nn1-c1ccc(Cl)cc1 [ONC0002892],107.8
11,"O=C(O)C(O)c1ccccc1 (stereo not shown) [ONC0003755, mandelicacid]",132.5
12,"C[C@H](CCC(=O)O)[C@H]1CC[C@H]2[C@@H]3[C@H](O)C[C@@H]4C[C@H](O)CC[C@]4(C)[C@H]3CC[C@]12C [ONC0004922, chenodeoxycholic acid]",117.1
13,"C[N+](C)(C)CC[N+]1(C)Cc2c(Cl)c(Cl)c(Cl)c(Cl)c2C1 [ONC0002618, chlorisondaminediiodide]",64.5
14,"CN1CCN(c2c(F)cc3c(=O)c(C(=O)O)cn(CCF)c3c2F)CC1 [ONC0004503, fleroxacin quinodis]",59.51
15,"CC[C@H](C)C(=O)O[C@H]1CCC=C2C=C[C@H](C)[C@H](CC[C@@H]3C[C@@H](O)CC(=O)O3)[C@H]21 [ONC0005466, mevastatin]",127.1
16,"Cc1ccc2c(c1)C(=O)C1(O)CCN(c3ccccc3)C1=N2 (stereo not shown) [ONC0001527, blebbistatin]",80.1
17,"NCCNS(=O)(=O)c1ccc(Cl)c2ccncc12 [ONC0003525, cki7]",94.56
18,CC/C(=C(\c1ccc(OCCN(C)C)cc1)c1cccc(O)c1)c1ccccc1 [ONC0002789],112.1
19,"O=C(NCCN1CCC2(CC1)C(=O)NCN2c1cccc(F)c1)c1ccc2ccccc2c1 [ONC0001715, vu0364739]",108.4
20,"COc1ccc(CCN(C)CCCC(C#N)(c2cc(OC)c(OC)c(OC)c2)C(C)C)cc1OC (stereo not shown) [ONC0001960, ü¾Œ–ˆ¼methoxyverapamil hydrochloride]",121.1
21,"Nc1cc(C(Cl)=C(Cl)Cl)c(S(N)(=O)=O)cc1S(N)(=O)=O [ONC0005084, clorsulon]",94.31
22,"CC1=NN(c2ccc(C)c(C)c2)C(=O)/C1=N/Nc1cccc(-c2cccc(C(=O)O)c2)c1O [ONC0004936, eltrombopag olamine]",85.22

row,Compound,% viability [%]
1,"COc1c2occc2c(OC)c2c(=O)cc(C)oc12 [ONC0003336, khellin]",80.08
2,"N[C@@H]1c2cccnc2[C@H](OC(=O)N2CCC(n3c(=O)[nH]c4ncccc43)CC2)CC[C@H]1c1cccc(F)c1F [ONC0000746, rimegepant]",60.53
3,CS(=O)(=O)N1CCc2c(-c3cnc(N)nc3)nc(N3CCOCC3)nc21 [ONC0004974],80.5
4,"Cn1ccc2cc(NC(=O)Nc3cccnc3)ccc21 [ONC0001773, sb200646]",112.2
5,"O=c1oc2ccccc2c(O)c1Cc1c(O)c2ccccc2oc1=O [ONC0000533, dicumarol]",83.84
6,"CN1C(CSCC(F)(F)F)Nc2cc(Cl)c(S(N)(=O)=O)cc2S1(=O)=O (stereo not shown) [ONC0001953, polythiazide]",124.5
7,"CC(=O)[C@]1(O)Cc2c(O)c3c(c(O)c2[C@@H](O[C@H]2C[C@H](N)[C@H](O)[C@H](C)O2)C1)C(=O)c1ccccc1C3=O [ONC0004533, idarubicin hcl]",43.23
8,"CSc1ccc([C@H]2CN3CCC[C@H]3c3ccccc32)cc1 [ONC0000925, mcn5652]",74.54
9,"Cn1c(NC[C@@H](N)Cc2ccccc2)nc(-c2ccncc2)c(-c2ccc3ccccc3c2)c1=O [ONC0000241, amg548]",91.5
10,"c1ccc(CNc2nc(NCc3ccccc3)c3ccccc3n2)cc1 [ONC0005130, dbeq]",90.83
11,"CC(/C=C1\SC(=S)N(CC(=O)O)C1=O)=C\c1ccccc1 [ONC0002055, epalrestat]",66.81
12,"CCC(=O)OCN1C(=O)C=CC1=O [ONC0001528, mira1]",90.28
13,"CCCOc1ccn2c(C(C)=O)cc(-c3ccccc3S(C)(=O)=O)c2c1 [ONC0005288, gsk2801]",106.2
14,"CCCN(CCC)C1CCc2cccc(O)c2C1 (stereo not shown) [ONC0002624, 8hydroxydpat]",70.5
15,"N[C@@H]1[C@H]2CN(c3nc4c(cc3F)c(=O)c(C(=O)O)cn4-c3ccc(F)cc3F)C[C@@H]12 [ONC0003479, trovafloxacin mesylate]",65.94
16,"C[C@H](Nc1cc(NS(=O)(=O)N2CCC2)nc(SCc2cccc(F)c2F)n1)[C@@H](O)CO [ONC0000894, srt3190]",61.67
17,"COC(=O)CCSCc1ccc(-c2onc(C)c2NC(=O)OC(C)c2ccccc2Cl)cc1 (stereo not shown) [ONC0004532, ki16198]",70.88
18,"CN1CCN(CCCN2c3ccccc3Sc3ccc(Cl)cc32)CC1 [ONC0000480, prochlorperazine edisylate]",81.16
19,"CCN(c1ccccc1)c1cc(NC)[n+](C)c(C)n1 [ONC0002628, zd7288]",84.49
20,"CCCCCCCCCCCCCCCCCCO [ONC0003680, octadecan1ol]",83.48
